Measured values from patent US10299714B2, “Blood collection devices containing blood stabilization agent including variegin or analog thereof and/or a polysulfated disaccharide” (Becton, Dickinson and Company, priority 2010, dated 2019).

Tested on: platelets
Assay: Platelet aggregation measurements using low dose ADP agonist, inventive tube versus hirudin tube
Assay type: cell-based, human
Details: five samples
Protocol: Measurements: Testing of platelet function (which in this experiment, was aggregation activity) was done using the Multiplate instrument (Verum Diagnostics, Munich, Germany), which uses whole blood as the sample and an increase in impedance as the measurement of platelet aggregation. The instrument was used per manufacturer's instructions. Briefly, 300 microliters of isotonic saline was warmed in each reaction cuvette, and to this was added 300 microliters of the whole blood sample. In reactions where aspirin or other platelet antagonists (inhibitors) were added in vitro, 20 microliters (μL) of a stock solution of aspirin was spiked into the samples. The aggregation reaction was initiated by addition of a platelet agonist, in this case collagen, at 3.2 μg/ml and volume (20 μl) per manufacturer's instructions. Upon addition of the collagen, the impedance measurements began automatically, and were continued for 6 minutes, representing the full course along the x-axis in the graphs shown in FIG. 2. The graphs show platelet aggregation, as reported by impedance, as an arbitrary unitless measurement on the y-axis, over the 6-minute run time on the x-axis. Traces shown are raw platelet aggregation data delivered from the instrument. […]

## Hirudin
1 h
  samples falling below the functional threshold of 27 AUC: one of the five
24 h
  samples falling below the functional threshold of 27 AUC: three of the five
